The entries are a selection whose mix differs from that of the whole data set. The calls were merged from several studies; some rest on single wells. This is one part of the list.
How the values were obtained:
Settings in all cases: stereoisomer not certain
O10G3 = system: T1, O10G3
T1 sequence (whole entry): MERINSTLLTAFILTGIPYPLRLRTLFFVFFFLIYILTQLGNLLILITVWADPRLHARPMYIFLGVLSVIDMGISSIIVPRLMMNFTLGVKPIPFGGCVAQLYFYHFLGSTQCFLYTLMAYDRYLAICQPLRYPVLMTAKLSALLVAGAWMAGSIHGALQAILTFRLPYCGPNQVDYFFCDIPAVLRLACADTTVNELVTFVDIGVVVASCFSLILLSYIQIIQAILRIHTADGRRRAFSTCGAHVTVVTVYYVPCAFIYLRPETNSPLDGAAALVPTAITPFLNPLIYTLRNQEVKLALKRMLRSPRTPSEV
Procedure, shortened: (§1)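 Transient luciferase assays in mammalian cell lines were common, though methods varied by source. The values come from published papers and their supplementary material, with extra details from the original authors when needed. Responsive refers to a measured signal the original authors judged statistically different from baseline, and non-responsive (inactive) to the remainder.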

Chains of the proteins cited; added tags and fusions are not shown. Chains listed by the source or under a name are the forms on record and can include a tag or linker.
O10G7, as listed by the source: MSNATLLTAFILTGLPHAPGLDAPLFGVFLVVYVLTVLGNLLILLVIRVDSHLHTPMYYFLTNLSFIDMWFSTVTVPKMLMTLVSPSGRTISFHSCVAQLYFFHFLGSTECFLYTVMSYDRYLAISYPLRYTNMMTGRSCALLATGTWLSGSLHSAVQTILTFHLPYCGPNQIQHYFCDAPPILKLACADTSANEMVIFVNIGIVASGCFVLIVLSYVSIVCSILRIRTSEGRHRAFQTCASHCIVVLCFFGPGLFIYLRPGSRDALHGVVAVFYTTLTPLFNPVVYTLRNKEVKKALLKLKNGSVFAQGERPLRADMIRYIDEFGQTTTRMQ

O10G4 = system: T2, O10G4
T2 sequence (whole entry): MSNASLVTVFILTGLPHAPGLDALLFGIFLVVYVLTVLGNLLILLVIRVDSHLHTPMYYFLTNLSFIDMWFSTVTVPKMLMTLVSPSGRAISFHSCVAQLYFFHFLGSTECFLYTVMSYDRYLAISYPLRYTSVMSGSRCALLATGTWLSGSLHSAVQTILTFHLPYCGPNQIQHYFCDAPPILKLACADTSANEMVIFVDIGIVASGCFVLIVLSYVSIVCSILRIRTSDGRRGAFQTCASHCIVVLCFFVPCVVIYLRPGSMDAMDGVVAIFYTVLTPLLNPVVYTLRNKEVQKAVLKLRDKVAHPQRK
Procedure, shortened: as §1

O10G9 = system: T3, O10G9
T3 sequence (whole entry): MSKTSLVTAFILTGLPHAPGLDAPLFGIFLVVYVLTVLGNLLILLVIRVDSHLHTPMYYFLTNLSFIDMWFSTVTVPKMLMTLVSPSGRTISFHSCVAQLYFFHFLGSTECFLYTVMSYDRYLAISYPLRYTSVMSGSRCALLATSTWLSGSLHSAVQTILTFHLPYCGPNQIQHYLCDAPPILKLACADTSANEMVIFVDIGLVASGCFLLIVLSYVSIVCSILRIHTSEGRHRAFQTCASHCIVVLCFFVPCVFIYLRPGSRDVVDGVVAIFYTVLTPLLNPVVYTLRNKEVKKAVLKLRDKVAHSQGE
Procedure, shortened: as §1

O10H2 = system: T4, O10H2
T4 sequence (whole entry): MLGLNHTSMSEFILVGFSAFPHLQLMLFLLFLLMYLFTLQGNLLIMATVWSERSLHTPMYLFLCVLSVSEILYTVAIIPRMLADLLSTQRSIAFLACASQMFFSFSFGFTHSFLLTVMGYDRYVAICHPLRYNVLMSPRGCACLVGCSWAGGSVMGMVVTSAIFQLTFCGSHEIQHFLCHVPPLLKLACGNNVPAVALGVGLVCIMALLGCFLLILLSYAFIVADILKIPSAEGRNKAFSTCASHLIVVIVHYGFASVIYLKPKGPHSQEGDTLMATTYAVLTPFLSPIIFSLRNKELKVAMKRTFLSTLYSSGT
Procedure, shortened: as §1

O10H5 = system: T5, O10H5
T5 sequence (whole entry): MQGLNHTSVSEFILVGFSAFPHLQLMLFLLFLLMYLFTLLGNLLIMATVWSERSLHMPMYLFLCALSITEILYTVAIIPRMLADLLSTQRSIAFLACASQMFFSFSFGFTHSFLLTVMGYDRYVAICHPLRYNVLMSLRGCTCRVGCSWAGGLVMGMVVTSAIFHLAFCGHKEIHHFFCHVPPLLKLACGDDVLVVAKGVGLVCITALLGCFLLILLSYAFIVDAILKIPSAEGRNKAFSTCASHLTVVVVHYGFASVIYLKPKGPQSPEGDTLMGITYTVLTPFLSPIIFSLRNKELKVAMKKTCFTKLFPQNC
Procedure, shortened: as §1

O10J1 = system: T6, O10J1
T6 sequence (whole entry): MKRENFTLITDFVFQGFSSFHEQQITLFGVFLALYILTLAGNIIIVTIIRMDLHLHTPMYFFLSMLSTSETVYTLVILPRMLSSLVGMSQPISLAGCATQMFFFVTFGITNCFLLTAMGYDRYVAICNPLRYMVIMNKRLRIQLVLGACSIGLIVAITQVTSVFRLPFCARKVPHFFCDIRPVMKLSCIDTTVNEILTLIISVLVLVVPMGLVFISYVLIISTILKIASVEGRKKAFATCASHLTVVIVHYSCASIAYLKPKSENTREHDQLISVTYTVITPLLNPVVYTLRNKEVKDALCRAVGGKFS
Procedure, shortened: as §1

O10G7 = system: O10G7
Procedure, shortened: as §1
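Note: active if original authors judged signal statistically different from baseline.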

Structure (SMILES) | odorant receptor agonist call (O10G3) | odorant receptor agonist call (O10G4) | odorant receptor agonist call (O10G9) | odorant receptor agonist call (O10H2) | odorant receptor agonist call (O10H5) | odorant receptor agonist call (O10J1) | odorant receptor agonist call (O10G7)
CC(C)(C)c1ccc(CCC=O)cc1 | inactive | inactive | inactive | inactive | inactive | inactive | –
CC(=O)c1ccccc1 | inactive | – | inactive | inactive | inactive | – | active
COc1ccccc1O | inactive | active | active | inactive | inactive | inactive | –
C=C(C)C1CCC2=CC(=O)CC(C)C2(C)C1 (stereo not given) | – | active | – | – | – | active | –
CCCCCCCC=CC=O | inactive | inactive | inactive | inactive | inactive | inactive | –
c1cnccn1 | inactive | inactive | inactive | inactive | inactive | inactive | –
CC(=O)C(C)=O | inactive | inactive | inactive | inactive | inactive | inactive | –
CC1=NC(C)SC1C (stereo not given) | active | – | inactive | inactive | inactive | – | –
C=CCSCC=C | inactive | inactive | inactive | inactive | inactive | inactive | –
CCCCCC(C)=O | active | – | inactive | inactive | inactive | – | –
O=C1CCCCC1 | inactive | – | inactive | inactive | inactive | – | –
c1ccc(Oc2ccccc2)cc1 | inactive | inactive | inactive | inactive | inactive | inactive | –
CCC1(O)C2(C)CCC(C2)C1(C)C (stereo not given) | inactive | inactive | inactive | inactive | inactive | inactive | –
CC1CCC(C(C)C)C(O)C1 (stereo not given) | inactive | inactive | inactive | active | inactive | inactive | –
CCCCCC(=O)O | inactive | inactive | inactive | inactive | inactive | inactive | –
CC(C)C=O | inactive | inactive | inactive | inactive | inactive | inactive | –
CCCCCCCOC(C)=O | inactive | active | inactive | inactive | inactive | inactive | –
C=CCc1ccc(OC(C)=O)c(OC)c1 | inactive | inactive | inactive | inactive | inactive | active | –
CCCC(=O)O | inactive | active | inactive | inactive | inactive | inactive | –
O=C1CCCCCCCCCCCCCCO1 | inactive | inactive | inactive | inactive | inactive | inactive | –
CC12C=CCC1C1CCC3=CC(=O)CCC3(C)C1CC2 (stereo not given) | inactive | active | inactive | inactive | inactive | inactive | –
CC(C)=CCCC(C)=CC=O | inactive | active | inactive | inactive | inactive | inactive | –
CC12C=CCC1C1CCC3CC(=O)CCC3(C)C1CC2 (stereo not given) | inactive | inactive | active | inactive | inactive | inactive | –
CC1=CCC(C(C)(C)O)CC1 (stereo not given) | inactive | inactive | inactive | inactive | inactive | inactive | –
CC(C)(O)CCCC1=CCC(C=O)CC1 (stereo not given) | – | inactive | – | – | – | inactive | –
COC(=O)c1ccccc1 | inactive | – | inactive | inactive | inactive | – | –
C=CC(C)(O)CCC=C(C)C (stereo not given) | inactive | inactive | inactive | inactive | inactive | inactive | –

Pulled by structure from the entries so far (2):
Structure (SMILES) | odorant receptor agonist call (O10G3) | odorant receptor agonist call (O10G4) | odorant receptor agonist call (O10G9) | odorant receptor agonist call (O10H2) | odorant receptor agonist call (O10H5) | odorant receptor agonist call (O10J1) | odorant receptor agonist call (O10G7)
CC1=NC(C)SC1C (stereo not given) | active | – | inactive | inactive | inactive | – | –
COc1ccccc1O | inactive | active | active | inactive | inactive | inactive | –
